Here are results for three sequences from patent publication US6376240.

Chains of the proteins cited; added tags and fusions are not shown. Lines headed by an entry give the natural chain unless they say otherwise; changes in a name come on top. Residues count along the entry.
UniProt P08047, 2-785: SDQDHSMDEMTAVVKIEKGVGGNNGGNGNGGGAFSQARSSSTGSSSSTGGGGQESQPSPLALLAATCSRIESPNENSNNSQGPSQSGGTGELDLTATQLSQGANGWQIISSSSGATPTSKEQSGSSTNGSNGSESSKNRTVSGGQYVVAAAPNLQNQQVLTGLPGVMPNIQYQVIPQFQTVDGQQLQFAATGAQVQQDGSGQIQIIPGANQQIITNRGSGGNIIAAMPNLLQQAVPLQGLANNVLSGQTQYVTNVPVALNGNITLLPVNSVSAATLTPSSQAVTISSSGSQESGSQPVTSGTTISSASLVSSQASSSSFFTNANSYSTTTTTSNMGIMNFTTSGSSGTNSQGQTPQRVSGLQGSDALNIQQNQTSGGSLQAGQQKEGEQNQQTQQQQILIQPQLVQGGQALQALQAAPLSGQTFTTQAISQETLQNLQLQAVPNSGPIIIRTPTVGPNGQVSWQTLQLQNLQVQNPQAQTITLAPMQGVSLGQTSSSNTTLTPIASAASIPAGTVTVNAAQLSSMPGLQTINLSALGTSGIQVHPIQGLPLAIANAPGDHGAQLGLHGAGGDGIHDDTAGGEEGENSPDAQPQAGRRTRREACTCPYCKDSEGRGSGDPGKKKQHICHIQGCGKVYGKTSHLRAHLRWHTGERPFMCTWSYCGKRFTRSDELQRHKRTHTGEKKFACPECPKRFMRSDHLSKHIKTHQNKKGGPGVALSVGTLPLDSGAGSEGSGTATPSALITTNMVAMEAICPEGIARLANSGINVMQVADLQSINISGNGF
UniProt Q02447: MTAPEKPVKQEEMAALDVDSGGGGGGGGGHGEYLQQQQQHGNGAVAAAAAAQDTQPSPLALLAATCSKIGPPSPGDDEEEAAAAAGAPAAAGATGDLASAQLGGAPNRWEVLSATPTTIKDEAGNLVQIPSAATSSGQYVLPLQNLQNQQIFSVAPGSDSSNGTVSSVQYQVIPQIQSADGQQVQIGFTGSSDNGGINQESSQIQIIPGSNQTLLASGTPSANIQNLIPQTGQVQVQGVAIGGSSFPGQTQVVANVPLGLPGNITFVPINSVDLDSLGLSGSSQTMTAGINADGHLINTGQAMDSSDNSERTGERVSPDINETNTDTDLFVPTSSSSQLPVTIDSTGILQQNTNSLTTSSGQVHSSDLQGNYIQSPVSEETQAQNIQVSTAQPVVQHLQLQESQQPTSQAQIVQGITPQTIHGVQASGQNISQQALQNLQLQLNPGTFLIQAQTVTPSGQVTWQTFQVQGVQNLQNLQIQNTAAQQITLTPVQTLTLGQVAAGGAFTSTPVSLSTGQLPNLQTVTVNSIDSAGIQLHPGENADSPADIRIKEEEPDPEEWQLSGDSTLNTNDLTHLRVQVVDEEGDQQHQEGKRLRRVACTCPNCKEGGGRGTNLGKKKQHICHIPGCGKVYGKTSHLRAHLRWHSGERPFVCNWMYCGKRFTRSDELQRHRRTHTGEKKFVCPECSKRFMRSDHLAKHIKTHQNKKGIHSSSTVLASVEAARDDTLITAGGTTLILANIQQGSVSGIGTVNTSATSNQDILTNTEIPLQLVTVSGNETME

In data set [1] the target is RFLAT-1 (in activated PBL nuclear extract complex) (homo sapien) (UniProt Q9Y2Y9). In words: EMSA. Particulars: protein in an extract, label: 32P. A general note: In EMSA bound probe runs differently from free probe, usually more slowly.
Another data set addresses T1, c-Rel (UniProt Q04864).
T1 sequence (looked up, limits assumed): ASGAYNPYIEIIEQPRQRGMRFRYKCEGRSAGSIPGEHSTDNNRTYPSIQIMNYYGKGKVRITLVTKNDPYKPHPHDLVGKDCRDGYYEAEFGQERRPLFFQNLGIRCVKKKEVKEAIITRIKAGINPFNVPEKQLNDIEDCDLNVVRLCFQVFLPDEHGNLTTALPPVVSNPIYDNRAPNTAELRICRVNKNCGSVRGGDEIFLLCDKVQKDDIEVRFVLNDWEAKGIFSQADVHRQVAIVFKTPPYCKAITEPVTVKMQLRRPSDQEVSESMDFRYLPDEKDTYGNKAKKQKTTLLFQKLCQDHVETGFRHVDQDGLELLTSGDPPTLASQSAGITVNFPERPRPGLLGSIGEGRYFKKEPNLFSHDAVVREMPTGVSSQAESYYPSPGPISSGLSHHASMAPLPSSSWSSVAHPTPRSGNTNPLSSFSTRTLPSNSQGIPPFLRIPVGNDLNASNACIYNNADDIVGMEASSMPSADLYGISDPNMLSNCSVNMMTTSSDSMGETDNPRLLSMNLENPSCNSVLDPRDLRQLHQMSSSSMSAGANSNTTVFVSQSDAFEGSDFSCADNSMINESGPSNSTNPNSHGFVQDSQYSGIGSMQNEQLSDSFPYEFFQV
Kind of data set: EMSA. The note with it: anti-c-rel gave no supershift; protein in an extract; label: 32P.

A further data set concerns the target Sp1 (UniProt P08047). Kind of data set: EMSA. Particulars: anti-Sp1 gave no supershift or disruption; protein in an extract; label: 32P.
The next data set addresses Sp3 (UniProt Q02447). Kind of data set: EMSA. Particulars: anti-Sp3 gave no supershift or disruption; protein in an extract; label: 32P.
The test system of data set [2] is NF-kB p50/p65 (in activated PBL nuclear extract complex). In words: EMSA. Particulars: anti-p50 and anti-p65 supershift both bands; protein in an extract; label: 32P.
In data set [3] the target is RFLAT-1 C-terminal portion (phage expression clone, nt 550-1430) (homo sapien) (UniProt Q9Y2Y9). Kind of data set: binding assay. Particulars: plaque expression screening; 10 mM Tris pH 7.5, 80 mM NaCl, 1 mM EDTA, 25 C, calf thymus DNA; protein in a lysate after overexpression; protein details: lambda gt11 plaque expression; label: 32P.

Where cells or extracts were used, other partners may take part. For some of these results: Construct, isoform or probe ends are uncertain for at least one entry. For some of these results: No signal at the amounts used counts as a negative. For some of these results: Tags and fusion partners may be left off the protein sequences shown.

Take “AATTCGTTGCTATTTTGGAAACTCCCCTTG (double strand) [A probe]”: in data set [1] (antibody disruption, data not shown, variant of A/B probe), the binding result is recorded as “binds”.

On to “AATTCGCTATTTTGGAAACTCCCCTTAGGGGATGCCCCTCAACTGCG (double strand) [A/B probe]”, for which the binding result with c-Rel was “no binding”; with Sp1, “no binding”; with Sp3, “no binding”; in data set [2], “binds”; in data set [1] (anti-RFLAT-1 disrupts bands 1 and 2, complex also contains NF-kB), “binds”.

Regarding “GGGAATTCGAATTCGCTATTTTGGAAACTCCCCTTAGGGCTATTTTGGAAACTCCCCTTAGGGCTATTTTGGAAACTCCCCTTAGGCTCGAGCTCGAGGG (double strand) [A3 (three tandem A sites)]”, the binding result in data set [3] was “binds”.
